Laboratory results from paper doi:10.1101/2021.05.17.443835.

Sequences of proteins named here, by UniProt entry; tags and fusion partners are left off.
UniProt P26039, whole entry: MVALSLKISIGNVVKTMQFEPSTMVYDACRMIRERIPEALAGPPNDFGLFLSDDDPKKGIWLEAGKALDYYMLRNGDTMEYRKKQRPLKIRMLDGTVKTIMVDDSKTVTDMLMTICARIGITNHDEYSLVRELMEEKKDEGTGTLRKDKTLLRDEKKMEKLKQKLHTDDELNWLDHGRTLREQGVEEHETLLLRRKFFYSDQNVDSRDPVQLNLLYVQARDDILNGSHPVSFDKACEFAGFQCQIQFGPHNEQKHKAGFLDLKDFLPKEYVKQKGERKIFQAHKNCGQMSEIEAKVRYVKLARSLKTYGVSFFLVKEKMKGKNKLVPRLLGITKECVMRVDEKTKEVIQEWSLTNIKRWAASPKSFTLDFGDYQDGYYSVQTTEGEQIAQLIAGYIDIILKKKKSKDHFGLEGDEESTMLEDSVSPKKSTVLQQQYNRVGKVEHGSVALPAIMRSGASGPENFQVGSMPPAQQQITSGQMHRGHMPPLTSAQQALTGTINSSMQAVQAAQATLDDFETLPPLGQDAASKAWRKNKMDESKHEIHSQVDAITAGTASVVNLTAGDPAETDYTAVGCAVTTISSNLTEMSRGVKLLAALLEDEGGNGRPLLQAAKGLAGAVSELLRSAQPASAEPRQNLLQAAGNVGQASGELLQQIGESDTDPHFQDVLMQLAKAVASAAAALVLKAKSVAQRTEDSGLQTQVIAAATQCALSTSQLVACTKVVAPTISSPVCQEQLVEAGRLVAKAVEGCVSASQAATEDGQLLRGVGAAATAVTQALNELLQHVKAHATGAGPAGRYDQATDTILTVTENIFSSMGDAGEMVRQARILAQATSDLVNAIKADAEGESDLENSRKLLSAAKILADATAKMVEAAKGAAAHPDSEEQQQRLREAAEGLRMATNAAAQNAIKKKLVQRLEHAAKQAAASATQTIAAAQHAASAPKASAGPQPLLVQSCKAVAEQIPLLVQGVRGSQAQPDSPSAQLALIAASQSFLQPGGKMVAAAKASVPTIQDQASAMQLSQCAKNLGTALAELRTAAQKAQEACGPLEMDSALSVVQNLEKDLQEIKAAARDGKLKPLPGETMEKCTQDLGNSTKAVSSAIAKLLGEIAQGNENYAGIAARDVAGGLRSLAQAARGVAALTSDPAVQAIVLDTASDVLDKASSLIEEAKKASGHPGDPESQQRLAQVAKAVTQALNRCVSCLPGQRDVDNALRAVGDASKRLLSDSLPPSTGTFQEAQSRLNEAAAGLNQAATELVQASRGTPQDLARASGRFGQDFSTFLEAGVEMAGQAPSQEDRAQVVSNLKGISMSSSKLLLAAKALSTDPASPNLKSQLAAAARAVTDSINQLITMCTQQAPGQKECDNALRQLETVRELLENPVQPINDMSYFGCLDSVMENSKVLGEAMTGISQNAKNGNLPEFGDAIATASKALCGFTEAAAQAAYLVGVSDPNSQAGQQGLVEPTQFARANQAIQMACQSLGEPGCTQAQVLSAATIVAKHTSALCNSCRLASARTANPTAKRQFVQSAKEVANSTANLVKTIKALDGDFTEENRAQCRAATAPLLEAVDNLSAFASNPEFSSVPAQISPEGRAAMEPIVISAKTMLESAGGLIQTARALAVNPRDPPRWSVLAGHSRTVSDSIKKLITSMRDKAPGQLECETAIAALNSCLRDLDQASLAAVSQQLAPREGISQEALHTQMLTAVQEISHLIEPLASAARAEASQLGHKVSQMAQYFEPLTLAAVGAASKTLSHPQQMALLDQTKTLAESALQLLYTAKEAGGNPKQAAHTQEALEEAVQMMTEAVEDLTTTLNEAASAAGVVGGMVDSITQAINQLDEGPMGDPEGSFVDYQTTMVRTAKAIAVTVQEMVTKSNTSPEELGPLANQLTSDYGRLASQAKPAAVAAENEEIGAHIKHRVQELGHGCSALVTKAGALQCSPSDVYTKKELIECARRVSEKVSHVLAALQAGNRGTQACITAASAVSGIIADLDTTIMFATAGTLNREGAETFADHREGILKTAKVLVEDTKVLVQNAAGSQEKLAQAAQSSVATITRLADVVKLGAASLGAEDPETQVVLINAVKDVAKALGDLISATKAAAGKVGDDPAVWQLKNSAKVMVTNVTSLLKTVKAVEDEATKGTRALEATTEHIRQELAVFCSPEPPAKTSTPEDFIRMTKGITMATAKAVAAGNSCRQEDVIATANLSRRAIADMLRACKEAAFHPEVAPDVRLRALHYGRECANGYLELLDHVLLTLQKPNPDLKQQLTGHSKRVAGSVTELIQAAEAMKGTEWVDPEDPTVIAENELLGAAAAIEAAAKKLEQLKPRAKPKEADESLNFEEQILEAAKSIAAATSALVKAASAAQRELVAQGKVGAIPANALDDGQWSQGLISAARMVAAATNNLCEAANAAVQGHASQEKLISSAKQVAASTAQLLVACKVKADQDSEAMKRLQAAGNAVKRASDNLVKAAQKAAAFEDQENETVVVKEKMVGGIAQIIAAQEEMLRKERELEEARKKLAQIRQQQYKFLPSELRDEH

Biological target: Talin-13X-Linker-BioID2-HA (UniProt P26039)
Assay: proximity labelling

B1: Zyxin (protein, UniProt Q15942 1-572)
chain: MAAPRPSPAISVSVSAPAFYAPQKKFGPVVAPKPKVNPFRPGDSEPPPAPGAQRAQMGRVGEIPPPPPEDFPLPPPPLAGDGDDAEGALGGAFPPPPPPIEESFPPAPLEEEIFPSPPPPPEEEGGPEAPIPPPPQPREKVSSIDLEIDSLSSLLDDMTKNDPFKARVSSGYVPPPVATPFSSKSSTKPAAGGTAPLPPWKSPSSSQPLPQVPAPAQSQTQFHVQPQPQPKPQVQLHVQSQTQPVSLANTQPRGPPASSPAPAPKFSPVTPKFTPVASKFSPGAPGGSGSQPNQKLGHPEALSAGTGSPQPPSFTYAQQREKPRVQEKQHPVPPPAQNQNQVRSPGAPGPLTLKEVEELEQLTQQLMQDMEHPQRQNVAVNELCGRCHQPLARAQPAVRALGQLFHIACFTCHQCAQQLQGQQFYSLEGAPYCEGCYTDTLEKCNTCGEPITDRMLRATGKAYHPHCFTCVVCARPLEGTSFIVDQANRPHCVPDYHKQYAPRCSVCSEPIMPEPGRDETVRVVALDKNFHMKCYKCEDCGKPLSIEADDNGCFPLDGHVLCRKCHTARAQT
Q: With B1 as the binder, how does the binding read?
A: The binding was “binds”.

These are yes or no findings as the source states them, for the method shown. Binding seen in cells or lysates may run through a third protein. These calls come from enrichment with a bait or labelling near it, and not all partners need be listed.
